Results are given in words; binding and its absence hold for the method and conditions named. In cells and extracts the contact can be indirect. A yes stands for co-enrichment or nearness to the bait. Other partners may have been found. Sequences can lack the tags named with a protein.
Target: T1, full-length Kir4.1, N-terminal tags cleaved off (UniProt P78508)
T1 sequence: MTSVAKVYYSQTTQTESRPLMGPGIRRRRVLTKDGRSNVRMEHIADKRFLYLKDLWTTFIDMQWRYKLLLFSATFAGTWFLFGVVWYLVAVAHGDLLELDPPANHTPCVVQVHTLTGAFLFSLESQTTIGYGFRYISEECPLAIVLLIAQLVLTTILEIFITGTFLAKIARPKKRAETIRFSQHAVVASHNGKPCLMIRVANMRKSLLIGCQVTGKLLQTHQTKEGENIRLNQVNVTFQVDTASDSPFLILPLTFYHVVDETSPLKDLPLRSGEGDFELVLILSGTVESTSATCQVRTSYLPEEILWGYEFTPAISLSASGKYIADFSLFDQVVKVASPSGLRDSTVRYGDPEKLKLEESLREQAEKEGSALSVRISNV
Assay: affinity purification with mass spectrometry; FLAG-GFP-Kir4.1 stably expressed in HEK293; membranes solubilised in 1% LMNG and 0.12% CHS; FLAG resin, eluted by HRV 3C cleavage, Superose 6 SEC in GDN buffer at pH 8.0, pH 6.0 or 500 mM KCl; tetramer fractions and gel bands (top two Kir4.1 bands, ~10 kDa band) analysed by peptide mass …

binding: binds
Substance: dynein light chain 1 (human (endogenous in HEK293))
